Results as given in patent US20250332268A1, “CONJUGATE AND COMPOSITION AS WELL AS PREPARATION METHOD THEREFOR AND USE THEREOF” (priority 2022, published 2025).
Some of these results come from one statement about several compounds together.

Tested on: U118MG subcutaneous tumor
Test: In vivo activity against U118MG subcutaneous tumor model mice (Experimental Example 8)
Set-up: species or system NOD-SCID mice
Conditions: experimental endpoint D72; subcutaneous on D8, D12, D15, D19; equivalent to 0.1 mg/kg of MMAE

Substance | tumor weight reduction as compared with test group 8a (MMAE only)
MMAE-CmUmGmCmUmUmCmAmGmAmCmGmUmGmUmUmAmGmCmUmUm (CUGCUUCAGACGUGUUAGCUU; all 2'-O-methyl, backbone not given here; MMAE drug conjugated at 5' end via linker, further chemistry not fully specified) [Conjugate 26] | at least 58%
MMAE-CmUmGmGmAmGmUmUmCmAmGmAmCmCmGmUmGmUmGmCmUmCmUmUm (CUGGAGUUCAGACCGUGUGCUCUU; all 2'-O-methyl, backbone not given here; MMAE drug conjugated at 5' end via linker, further chemistry not fully specified) [Conjugate 23] | at least 58%
MMAE-CmUmGmGmAmGmUmUmCmAmGmAmCmGmUmGmUmUmGmCmUmCmUmUmCmCmGmAmUmCmUmCm (DNA CUGGAGUUCAGACGUGUUGCUCUUCCGAUCUC; all 2'-O-methyl, backbone not given here; MMAE drug conjugated at 5' end via linker, further chemistry not fully specified) [Conjugate 20, dye group of AP2 replaced with MMAE; linking group 2-(phosphate ester group-(CH2)6—S—)-MC-Val-Cit-PAB] | at least 58%
MMAE-CmUmGmGmAmGmUmUmCmAmGmAmCmGmUmUmGmUmGmCmUmCmUmUm (CUGGAGUUCAGACGUUGUGCUCUU; all 2'-O-methyl, backbone not given here; MMAE drug conjugated at 5' end via linker, further chemistry not fully specified) [Conjugate 21] | at least 58%
